Data source: PubChem BioAssay AID686938 (Drosophila RNAi Screening Center, 2013)
The screen tested about 23,000 reagents; this is a random part of those that have a named target and a result. Of all reagents, 75 (0.33%) were called active. 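Raw plate signals without normalisation; calls rest on plate z-scores that were not deposited; ratio present for only 364 wells.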 Reagents against one gene are numbered here. A plus sign joins genes that one reagent is predicted to hit. Not stated in the record: the dose of the treatment.

Purpose: 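Fly genes required for calcium entry once internal stores are emptied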 (primary screen)
Cell system: Drosophila S2R+ cells
Reagents: long dsRNA against Drosophila genes, about 0.25 µg dsRNA per well, roughly 10,000 cells
Time to read-out: 5 days of knock-down before the calcium assay
Treatment: thapsigargin (SERCA pump blocker) to empty calcium stores; entry signal taken 4 min after adding it
Measurement: 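Per-well fluo-4 fluorescence in two replicates, unnormalised, measured in resting cells and 4 min after store depletion by the SERCA blocker thapsigargin; ratio of the two present in few wells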
Scale: calcium entry signal: higher = stronger calcium signal after store depletion; resting calcium signal: higher = higher resting calcium signal
Hit rule: 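Hit if the duplicate-averaged plate z-score for entry over resting signal is under −3; wells with weak total dye signal (Fmax z < −2) or more than 5 off-targets removed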
Meaning of the calls: active = strongly reduced calcium entry; inactive = no strong reduction

| target gene | reagent | calcium entry signal, replicate 1 (fluorescence units) | calcium entry signal, replicate 2 (fluorescence units) | resting calcium signal, replicate 1 (fluorescence units) | resting calcium signal, replicate 2 (fluorescence units) | call |
| --- | --- | --- | --- | --- | --- | --- |
| nbs (GeneID 44259) | 1 | 3.29e7 | 4.79e7 | 1.62e7 | 2.00e7 | inactive |
| Gpxl (GeneID 37194) | 1 | 4.18e7 | 3.93e7 | 1.78e7 | 1.94e7 | inactive |
| CG15728 (GeneID 32214) | 1 | 2.80e7 | 4.05e7 | 1.44e7 | 1.84e7 | inactive |
| CG15728 (GeneID 32214) | 2 | 1.85e7 | 3.47e7 | 1.06e7 | 1.49e7 | inactive |
| CG15721 (GeneID 32247) | 1 | 3.65e7 | 3.62e7 | 1.79e7 | 1.77e7 | inactive |
| CG34249 (retired record) (GeneID 5740397) | 1 | 5.11e7 | 3.89e7 | 2.24e7 | 2.03e7 | inactive |
| Sgs5bis (GeneID 42113) | 1 | 3.35e7 | 6.95e7 | 1.76e7 | 5.74e7 | inactive |
| CG10474 (GeneID 37211) | 1 | 4.22e7 | 4.74e7 | 1.87e7 | 2.18e7 | inactive |

Entries above whose gene name starts with C or c (5):
| target gene | reagent | calcium entry signal, replicate 1 (fluorescence units) | calcium entry signal, replicate 2 (fluorescence units) | resting calcium signal, replicate 1 (fluorescence units) | resting calcium signal, replicate 2 (fluorescence units) | call |
| --- | --- | --- | --- | --- | --- | --- |
| CG15728 (GeneID 32214) | 1 | 2.80e7 | 4.05e7 | 1.44e7 | 1.84e7 | inactive |
| CG15728 (GeneID 32214) | 2 | 1.85e7 | 3.47e7 | 1.06e7 | 1.49e7 | inactive |
| CG15721 (GeneID 32247) | 1 | 3.65e7 | 3.62e7 | 1.79e7 | 1.77e7 | inactive |
| CG34249 (retired record) (GeneID 5740397) | 1 | 5.11e7 | 3.89e7 | 2.24e7 | 2.03e7 | inactive |
| CG10474 (GeneID 37211) | 1 | 4.22e7 | 4.74e7 | 1.87e7 | 2.18e7 | inactive |

Additional entries:
| target gene | reagent | calcium entry signal, replicate 1 (fluorescence units) | calcium entry signal, replicate 2 (fluorescence units) | resting calcium signal, replicate 1 (fluorescence units) | resting calcium signal, replicate 2 (fluorescence units) | call |
| --- | --- | --- | --- | --- | --- | --- |
| CG2186 (GeneID 32017) | 1 | 2.24e7 | 3.48e7 | 1.13e7 | 1.49e7 | inactive |
| ZnT86D (GeneID 41342) | 1 | 3.79e7 | 2.48e7 | 1.92e7 | 1.36e7 | inactive |
| CG13877 + pyx | 1 | 3.81e7 | 4.47e7 | 1.94e7 | 1.99e7 | inactive |
| Bcs1 (GeneID 34360) | 1 | 3.76e7 | 3.96e7 | 1.69e7 | 1.69e7 | inactive |
| RpL10 (GeneID 43864) | 1 | 1.08e7 | 1.52e7 | 7.69e6 | 9.85e6 | inactive |
| ND-B18 (GeneID 32434) | 1 | 4.33e7 | 2.97e7 | 2.04e7 | 1.34e7 | inactive |
| nolo (GeneID 35424) | 1 | 3.53e7 | – | 1.68e7 | – | inactive |
| nolo (GeneID 35424) | 2 | 2.79e7 | 3.49e7 | 1.47e7 | 1.62e7 | inactive |
| nolo (GeneID 35424) | 3 | 2.78e7 | 3.32e7 | 1.49e7 | 1.59e7 | inactive |
| naz (GeneID 42204) | 1 | 3.80e7 | 5.06e7 | 5.21e7 | 2.19e7 | inactive |
| naz (GeneID 42204) | 2 | 3.74e7 | 4.22e7 | 4.44e7 | 1.92e7 | inactive |
| CG43244 (GeneID 12798420) | 1 | 5.04e7 | 4.50e7 | 2.17e7 | 1.94e7 | inactive |
| Invadolysin (GeneID 49580) | 1 | 2.73e7 | 3.09e7 | 1.31e7 | 1.48e7 | inactive |
| CG13589 (GeneID 37906) | 1 | 4.06e7 | 5.38e7 | 2.08e7 | 2.11e7 | inactive |
| TfIIEbeta (GeneID 38527) | 1 | 2.38e7 | 1.95e7 | 1.49e7 | 1.13e7 | inactive |
| CG11317 (GeneID 43676) | 1 | 4.08e7 | 4.09e7 | 1.85e7 | 2.01e7 | inactive |
